This experiment concerns the target cyclin-dependent protein kinase 5 (Cdk5) (rat (endogenous in primary neurons)) (UniProt Q03114). The experiment can be described thus: co-IP; in neurons; RIPA lysate with protease inhibitors, antibody overnight at 4°C, protein G plus/protein A-agarose 3 h at 4°C, washed thrice, immunoblot; which protein was precipitated is not told. In general terms: Immunoblotting shows a protein as a band on a membrane.

The results in this text go back to PMC10651984.

Results are given in words; binding and its absence hold for the method and conditions named. Binding seen in cells or lysates may run through a third protein. Some entries that bind do so weakly or less than the wild type.

B1: Chromosome 9 open reading frame 72 (C9orf72) protein (protein, UniProt Q66HC3 1-481)
chain: MSTICPPPSPAVAKTEIALSGESPLLAATFAYWDNILGPRVRHIWAPKTDQVLLSDGEITFLANHTLNGEILRNAESGAIDVKFFVLSEKGVIIVSLIFDGNWNGDRSTYGLSIILPQTELSFYLPLHRVCVDRLTHIIRKGRIWMHKERQENVQKIVLEGTERMEDQGQSIIPMLTGEVIPVMELLASMRSHSVPEDLDIADTVLNDDDIGDSCHEGFLLNAISSHLQTCGCSVVVGSSAEKVNKIVRTLCLFLTPAERKCSRLCEAESSFKYESGLFVQGLLKDATGSFVLPFRQVMYAPYPTTHIDVDVNTVKQMPPCHEHIYNQRRYMRSELTAFWRATSEEDMAQDTIIYTDESFTPDLNIFQDVLHRDTLVKAFLDQVFHLKPGLSLRSTFLAQFLLILHRKALTLIKYIEDDTQKGKKPFKSLRNLKIDLDLTAEGDLNIIMALAEKIKPGLHSFIFGRPFYTSVQERDVLMTF
B1: the binding result is given as “binds”.
